For test [1], the target named is Gαi3-FLAG (rat) (UniProt P08753). The experiment in a line: co-immunoprecipitation (FIG. 1C).
The target is the same in test [2]. Briefly: co-immunoprecipitation with anti-FLAG mAb from HEK293 lysates expressing Gαi3-FLAG, immunoblot (FIG. 1C).
Test [3] deals with GST-Gαi3 preloaded with GDP (inactive) (rat) (UniProt P08753). Briefly: GST pulldown from cell lysates (FIG. 1E).
Test [4] deals with Gαi3-FLAG (rat) (UniProt P08753). The experiment in a line: co-immunoprecipitation (FIG. 2E); the WT binds.
Test [5] concerns the target GST-Gαi3 preloaded with GDP (inactive) (rat) (UniProt P08753). The experiment in a line: GST pulldown from Cos7 lysates, immunoblot (FIG. 1E).
Test [6] concerns the target Gαi3-FLAG (rat) (UniProt P08753). The experiment in a line: co-immunoprecipitation with anti-FLAG mAb from Cos7 cells (FIG. 2E); the WT binds.
Another test addresses T1, GST-DAPLE-CT (human) (UniProt Q9P219).
T1 sequence: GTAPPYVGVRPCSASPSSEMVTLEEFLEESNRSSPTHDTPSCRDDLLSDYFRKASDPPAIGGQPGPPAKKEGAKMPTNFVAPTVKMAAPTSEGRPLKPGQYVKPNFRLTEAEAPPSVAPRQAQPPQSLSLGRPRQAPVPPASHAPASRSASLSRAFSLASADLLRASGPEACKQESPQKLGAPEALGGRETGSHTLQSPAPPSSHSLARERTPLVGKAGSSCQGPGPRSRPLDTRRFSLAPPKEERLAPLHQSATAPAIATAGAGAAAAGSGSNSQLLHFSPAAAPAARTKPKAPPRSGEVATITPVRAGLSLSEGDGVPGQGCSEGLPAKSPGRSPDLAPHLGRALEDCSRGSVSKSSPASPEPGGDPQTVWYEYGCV
Briefly: GST pulldown with 0.01-3 µM His-Gαi3, quantified immunoblot (FIG. 1F). For orientation: A western blot detects proteins with antibodies after separation by electrophoresis.

Sequences of proteins named here, by UniProt entry; tags and fusion partners are left off.
UniProt P08753: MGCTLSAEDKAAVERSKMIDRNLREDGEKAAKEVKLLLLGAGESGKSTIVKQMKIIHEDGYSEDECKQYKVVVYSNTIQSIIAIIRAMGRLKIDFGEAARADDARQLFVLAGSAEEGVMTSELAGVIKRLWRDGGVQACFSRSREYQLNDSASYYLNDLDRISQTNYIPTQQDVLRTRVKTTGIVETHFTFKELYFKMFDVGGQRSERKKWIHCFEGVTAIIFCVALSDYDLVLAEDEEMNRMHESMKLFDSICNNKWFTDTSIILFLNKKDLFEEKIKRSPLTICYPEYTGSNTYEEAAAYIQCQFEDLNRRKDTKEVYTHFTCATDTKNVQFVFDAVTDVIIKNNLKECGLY

In a further test the target is T2, GST-GIV (aa 1671-1755) (UniProt Q3V6T2).
T2 sequence (looked up): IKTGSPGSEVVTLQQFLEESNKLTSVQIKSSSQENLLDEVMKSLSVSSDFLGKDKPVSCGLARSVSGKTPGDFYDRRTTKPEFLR
The test is described as above.

No constants are given. Whether binding was seen depends on the method and setting. For some assays here: Binding seen in cells or lysates may run through a third protein. Some binding calls cover weakened binding; strength is not graded here. For some assays here: Where a sequence is shown, tags or fusion partners need not be part of it.

“endogenous full-length DAPLE (HEK293 cells) (from UniProt Q9P219 1-2028)”: the binding result in the test with Gαi3-FLAG (rat) [1] and with Gαi3-FLAG (rat) [2] was “binds” throughout.
For “myc-DAPLE full length WT (from UniProt Q9P219 1-2028)”, the binding result (in test [3]; with Gαi3-FLAG (rat) [4]; in test [5]; in the test with Gαi3-FLAG (rat) [6]) was “binds” throughout.
Take “His-Gαi3 (GDP-loaded) (from UniProt P08753 1-354)”: the binding entry with GST-DAPLE-CT (human) and in the test with GST-GIV (aa 1671-1755) was “binds” each time.
